Measurements from PMC4458842.
These are yes or no findings as the source states them, for the method shown. For some assays here: Binding seen in cells or lysates may run through a third protein. Some binding calls cover weakened binding; strength is not graded here. Tags and fused reporters may be left off the sequences shown.

The chains behind the UniProt entries cited, without tags or fusion partners.
UniProt Q38919: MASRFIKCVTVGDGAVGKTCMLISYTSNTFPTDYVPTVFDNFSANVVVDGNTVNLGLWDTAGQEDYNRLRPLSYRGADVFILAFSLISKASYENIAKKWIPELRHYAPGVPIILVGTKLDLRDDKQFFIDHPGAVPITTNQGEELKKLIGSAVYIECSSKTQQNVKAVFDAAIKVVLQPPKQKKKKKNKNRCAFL

Assays:
MBP-ROP2 (Arabidopsis) = MBP-ROP2 (Arabidopsis) (UniProt Q38919); assay: pull-down; MBP-ROP2 bait on resin; extracts of protoplasts expressing HA-LLG1 or HA-LRE; with guanine nucleotide (GDP or GTP); procedure of Duan et al., 2010; only the target purified
MBP-exJM (Arabidopsis) = target: T1, MBP-exJM (Arabidopsis) (UniProt Q9SCZ4); assay: pull-down; MBP-exJM bait on resin; E. coli-produced His6-LLG1 applied; 4°C, 2 hr
T1 sequence: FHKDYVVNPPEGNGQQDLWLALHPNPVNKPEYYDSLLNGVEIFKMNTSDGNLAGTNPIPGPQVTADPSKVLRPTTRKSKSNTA

[1] = target: T2, LLG1 (amino acids 24–149) (yeast two-hybrid fusion) (Arabidopsis) (UniProt Q9FKT1); assay: two-hybrid; yeast two-hybrid, Stratagene vectors; 3AT selection and β-galactosidase assays
T2 sequence: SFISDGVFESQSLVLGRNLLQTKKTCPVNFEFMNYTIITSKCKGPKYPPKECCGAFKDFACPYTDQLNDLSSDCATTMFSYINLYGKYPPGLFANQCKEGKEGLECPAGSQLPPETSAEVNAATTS

[2] = target: T3, LRE (amino acids 21–138) (yeast two-hybrid fusion) (Arabidopsis) (UniProt B3GS44); assay: as above
T3 sequence: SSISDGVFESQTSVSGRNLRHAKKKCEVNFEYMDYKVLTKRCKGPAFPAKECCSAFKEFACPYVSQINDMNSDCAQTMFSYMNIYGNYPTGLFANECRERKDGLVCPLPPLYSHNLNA

B1: HA-LLG1 (protein, UniProt Q9FKT1 24-144)
chain: SFISDGVFESQSLVLGRNLLQTKKTCPVNFEFMNYTIITSKCKGPKYPPKECCGAFKDFACPYTDQLNDLSSDCATTMFSYINLYGKYPPGLFANQCKEGKEGLECPAGSQLPPETSAEVN
binding (MBP-ROP2 (Arabidopsis)): binds

B2: His6-LLG1 (protein, UniProt Q9FKT1 24-144)
chain: B1 chain
binding (MBP-exJM (Arabidopsis)): binds

B3: exJM (yeast two-hybrid fusion) (domain or fragment, UniProt Q9SCZ4 365-447)
chain: T1 sequence
binding [1]: binds
binding [2]: binds

B4: HA-LRE (protein, UniProt B3GS44 21-139)
chain: SSISDGVFESQTSVSGRNLRHAKKKCEVNFEYMDYKVLTKRCKGPAFPAKECCSAFKEFACPYVSQINDMNSDCAQTMFSYMNIYGNYPTGLFANECRERKDGLVCPLPPLYSHNLNAS
binding (MBP-ROP2 (Arabidopsis)): binds
